The results in this text go back to patent US7737142B2, “(Thio) carbamoyl-cyclohexane derivatives as D3/D2 receptor antagonists” (Richter Gedeon Vegyeszeti Gyar Rt., priority 2003, dated 2010).

This assay concerns the target Alpha-1 receptor (rat brain cortical membrane preparation). The assay is described as follows: Alpha-1 receptor binding ([3H]-prasosin). Particulars: rat brain cortical membranes, [3H]-prasosin 0.5 nM; read-out: Alfa-1 IC-50.

Take `Cc1nc2n(c(=O)c1CCN1CCC(c3noc4cc(F)ccc34)CC1)CCCC2` [Risperidone, reference compound]: the IC50 lay in the range of 1 to 10 nM.
